B1: isocitrate dehydrogenase α subunit (enzyme, UniProt P50213 28-366)
chain: TGGVQTVTLIPGDGIGPEISAAVMKIFDAAKAPIQWEERNVTAIQGPGGKWMIPSEAKESMDKNKMGLKGPLKTPIAAGHPSMNLLLRKTFDLYANVRPCVSIEGYKTPYTDVNIVTIRENTEGEYSGIEHVIVDGVVQSIKLITEGASKRIAEFAFEYARNNHRSNVTAVHKANIMRMSDGLFLQKCREVAESCKDIKFNEMYLDTVCLNMVQDPSQFDVLVMPNLYGDILSDLCAGLIGGLGVTPSGNIGANGVAIFESVHGTAPDIAGKDMANPTALLLSAVMMLRHMGLFDHAARIEAACFATIKDGKSLTKDLGGNAKCSDFTEEICRRVKDLD

Protein sequences, listed by entry. Tags and fused reporters are not part of them. Residues count along the entry.
UniProt Q92793: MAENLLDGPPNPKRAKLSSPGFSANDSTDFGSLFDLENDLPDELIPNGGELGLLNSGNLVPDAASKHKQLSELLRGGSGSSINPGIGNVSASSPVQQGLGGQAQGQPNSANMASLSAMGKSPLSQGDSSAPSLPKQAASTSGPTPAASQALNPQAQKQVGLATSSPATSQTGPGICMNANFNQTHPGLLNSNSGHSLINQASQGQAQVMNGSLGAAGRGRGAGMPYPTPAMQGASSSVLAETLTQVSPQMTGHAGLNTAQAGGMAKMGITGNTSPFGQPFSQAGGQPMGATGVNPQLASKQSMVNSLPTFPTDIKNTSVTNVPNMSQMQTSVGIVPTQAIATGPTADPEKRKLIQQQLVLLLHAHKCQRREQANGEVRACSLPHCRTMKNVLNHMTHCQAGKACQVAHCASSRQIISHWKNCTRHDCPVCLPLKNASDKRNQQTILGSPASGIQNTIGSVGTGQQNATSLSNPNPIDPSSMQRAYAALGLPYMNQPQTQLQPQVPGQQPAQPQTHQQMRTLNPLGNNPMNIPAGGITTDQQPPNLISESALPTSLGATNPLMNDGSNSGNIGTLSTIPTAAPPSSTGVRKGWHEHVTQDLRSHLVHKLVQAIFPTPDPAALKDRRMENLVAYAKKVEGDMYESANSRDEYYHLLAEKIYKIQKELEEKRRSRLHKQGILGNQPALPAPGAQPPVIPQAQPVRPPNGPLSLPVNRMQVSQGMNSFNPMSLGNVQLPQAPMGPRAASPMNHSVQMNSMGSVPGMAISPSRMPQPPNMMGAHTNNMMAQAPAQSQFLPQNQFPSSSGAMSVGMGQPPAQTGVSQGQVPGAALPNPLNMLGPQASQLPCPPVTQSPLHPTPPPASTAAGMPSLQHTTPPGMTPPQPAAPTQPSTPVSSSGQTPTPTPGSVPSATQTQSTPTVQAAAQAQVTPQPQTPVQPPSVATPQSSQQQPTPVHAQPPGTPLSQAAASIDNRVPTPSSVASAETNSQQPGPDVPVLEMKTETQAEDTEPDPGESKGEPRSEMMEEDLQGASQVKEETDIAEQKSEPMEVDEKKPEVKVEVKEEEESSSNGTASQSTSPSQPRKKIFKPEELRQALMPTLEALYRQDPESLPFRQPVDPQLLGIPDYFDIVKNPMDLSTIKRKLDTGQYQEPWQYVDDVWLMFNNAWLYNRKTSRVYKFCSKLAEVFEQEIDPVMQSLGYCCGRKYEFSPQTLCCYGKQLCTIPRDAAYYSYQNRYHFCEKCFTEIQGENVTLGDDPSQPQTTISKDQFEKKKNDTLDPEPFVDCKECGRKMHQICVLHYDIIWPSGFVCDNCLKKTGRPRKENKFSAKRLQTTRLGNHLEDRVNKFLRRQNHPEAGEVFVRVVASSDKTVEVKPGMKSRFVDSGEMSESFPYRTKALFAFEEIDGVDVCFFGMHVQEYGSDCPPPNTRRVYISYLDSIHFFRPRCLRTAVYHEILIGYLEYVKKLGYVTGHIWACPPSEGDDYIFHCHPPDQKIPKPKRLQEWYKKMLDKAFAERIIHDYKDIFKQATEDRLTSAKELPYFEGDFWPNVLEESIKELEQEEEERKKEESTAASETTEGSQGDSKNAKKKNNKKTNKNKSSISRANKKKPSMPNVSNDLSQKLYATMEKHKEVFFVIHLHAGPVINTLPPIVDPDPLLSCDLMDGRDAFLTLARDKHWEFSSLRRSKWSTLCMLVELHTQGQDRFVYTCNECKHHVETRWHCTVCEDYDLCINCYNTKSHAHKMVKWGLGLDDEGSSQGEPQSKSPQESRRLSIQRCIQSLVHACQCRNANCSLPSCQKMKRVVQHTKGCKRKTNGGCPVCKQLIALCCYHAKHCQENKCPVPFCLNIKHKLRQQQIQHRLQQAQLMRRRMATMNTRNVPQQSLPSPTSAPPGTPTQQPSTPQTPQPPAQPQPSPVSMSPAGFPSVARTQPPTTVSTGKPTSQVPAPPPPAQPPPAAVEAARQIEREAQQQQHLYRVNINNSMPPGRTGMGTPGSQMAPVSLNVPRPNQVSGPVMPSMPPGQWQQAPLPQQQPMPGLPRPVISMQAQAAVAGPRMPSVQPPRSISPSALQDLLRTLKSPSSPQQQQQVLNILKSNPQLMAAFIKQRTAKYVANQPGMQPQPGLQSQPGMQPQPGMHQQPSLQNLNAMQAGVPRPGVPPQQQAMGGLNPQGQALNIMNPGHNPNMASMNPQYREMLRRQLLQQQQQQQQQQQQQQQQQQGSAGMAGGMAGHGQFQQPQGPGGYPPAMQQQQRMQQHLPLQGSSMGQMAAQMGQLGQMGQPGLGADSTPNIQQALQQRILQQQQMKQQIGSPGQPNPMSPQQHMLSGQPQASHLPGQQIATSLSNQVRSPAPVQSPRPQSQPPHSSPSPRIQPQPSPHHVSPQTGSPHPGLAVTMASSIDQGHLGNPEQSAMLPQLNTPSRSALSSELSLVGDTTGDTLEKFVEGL
UniProt O14980: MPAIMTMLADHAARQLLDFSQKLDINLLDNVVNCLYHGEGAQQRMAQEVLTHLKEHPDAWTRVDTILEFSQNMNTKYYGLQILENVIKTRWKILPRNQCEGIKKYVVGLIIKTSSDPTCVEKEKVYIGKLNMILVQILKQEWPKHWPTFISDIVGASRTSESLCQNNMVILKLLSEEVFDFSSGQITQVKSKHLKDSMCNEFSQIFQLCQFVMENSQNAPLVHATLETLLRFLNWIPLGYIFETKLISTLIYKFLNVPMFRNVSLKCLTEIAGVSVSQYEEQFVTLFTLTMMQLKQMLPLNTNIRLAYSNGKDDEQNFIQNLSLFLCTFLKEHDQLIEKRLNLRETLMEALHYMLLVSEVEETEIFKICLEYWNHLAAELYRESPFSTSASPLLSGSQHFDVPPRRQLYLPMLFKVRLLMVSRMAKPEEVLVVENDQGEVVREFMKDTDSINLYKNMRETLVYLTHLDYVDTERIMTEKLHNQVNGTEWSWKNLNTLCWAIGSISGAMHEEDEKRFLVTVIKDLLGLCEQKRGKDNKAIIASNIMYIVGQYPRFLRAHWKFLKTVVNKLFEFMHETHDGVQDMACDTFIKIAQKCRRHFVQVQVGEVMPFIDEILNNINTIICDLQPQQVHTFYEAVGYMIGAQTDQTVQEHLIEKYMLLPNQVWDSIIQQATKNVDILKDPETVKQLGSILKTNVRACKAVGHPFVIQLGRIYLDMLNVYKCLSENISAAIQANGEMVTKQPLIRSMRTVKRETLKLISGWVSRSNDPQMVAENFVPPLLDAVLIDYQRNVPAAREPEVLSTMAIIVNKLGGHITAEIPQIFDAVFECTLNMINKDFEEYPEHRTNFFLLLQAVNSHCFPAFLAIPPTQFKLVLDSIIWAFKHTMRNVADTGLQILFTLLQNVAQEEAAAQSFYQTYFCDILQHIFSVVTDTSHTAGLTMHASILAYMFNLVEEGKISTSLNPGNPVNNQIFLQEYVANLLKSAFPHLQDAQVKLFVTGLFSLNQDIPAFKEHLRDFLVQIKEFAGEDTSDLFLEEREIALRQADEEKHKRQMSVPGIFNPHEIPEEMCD
UniProt Q92973: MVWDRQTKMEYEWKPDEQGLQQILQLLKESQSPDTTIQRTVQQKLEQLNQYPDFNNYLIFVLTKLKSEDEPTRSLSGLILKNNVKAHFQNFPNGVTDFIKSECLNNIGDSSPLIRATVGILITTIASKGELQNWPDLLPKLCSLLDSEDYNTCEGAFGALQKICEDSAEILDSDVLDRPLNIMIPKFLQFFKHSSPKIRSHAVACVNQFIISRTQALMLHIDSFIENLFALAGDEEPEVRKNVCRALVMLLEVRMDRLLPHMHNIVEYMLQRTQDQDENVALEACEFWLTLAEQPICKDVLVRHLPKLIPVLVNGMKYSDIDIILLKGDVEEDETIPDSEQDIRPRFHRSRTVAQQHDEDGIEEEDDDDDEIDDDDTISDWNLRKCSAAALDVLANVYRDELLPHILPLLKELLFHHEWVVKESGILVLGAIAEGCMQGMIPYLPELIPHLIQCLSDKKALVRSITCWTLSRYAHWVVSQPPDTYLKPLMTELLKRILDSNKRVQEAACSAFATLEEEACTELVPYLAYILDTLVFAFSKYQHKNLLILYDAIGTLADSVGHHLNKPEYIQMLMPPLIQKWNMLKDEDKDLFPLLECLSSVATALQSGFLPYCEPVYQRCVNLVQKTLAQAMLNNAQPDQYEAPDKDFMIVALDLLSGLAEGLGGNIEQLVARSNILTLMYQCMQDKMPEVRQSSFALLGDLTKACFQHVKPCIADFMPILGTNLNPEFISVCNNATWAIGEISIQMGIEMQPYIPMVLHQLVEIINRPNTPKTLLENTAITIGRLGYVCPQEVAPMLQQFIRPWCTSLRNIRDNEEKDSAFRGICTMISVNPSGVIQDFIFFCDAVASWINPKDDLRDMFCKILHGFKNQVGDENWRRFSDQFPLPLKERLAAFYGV
UniProt O43837, residues 35-385: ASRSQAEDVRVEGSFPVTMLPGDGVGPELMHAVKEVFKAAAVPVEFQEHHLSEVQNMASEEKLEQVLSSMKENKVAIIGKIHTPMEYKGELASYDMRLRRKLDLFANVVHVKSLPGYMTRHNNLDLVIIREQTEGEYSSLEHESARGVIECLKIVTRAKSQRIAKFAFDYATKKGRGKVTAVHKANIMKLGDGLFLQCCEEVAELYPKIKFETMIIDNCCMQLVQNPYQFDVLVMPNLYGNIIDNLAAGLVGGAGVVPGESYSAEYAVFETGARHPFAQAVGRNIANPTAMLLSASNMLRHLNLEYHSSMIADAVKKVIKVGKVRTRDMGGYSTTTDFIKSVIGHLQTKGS

No constants are given. Whether binding was seen depends on the method and setting. In cells and extracts the contact can be indirect. These calls come from enrichment with a bait or labelling near it, and not all partners need be listed. Sequences can lack the tags named with a protein.

The first assay concerns the target T1, SIRT2 (isoform 1) tagged at its C-terminus with GFP (UniProt Q8IXJ6).
T1 sequence: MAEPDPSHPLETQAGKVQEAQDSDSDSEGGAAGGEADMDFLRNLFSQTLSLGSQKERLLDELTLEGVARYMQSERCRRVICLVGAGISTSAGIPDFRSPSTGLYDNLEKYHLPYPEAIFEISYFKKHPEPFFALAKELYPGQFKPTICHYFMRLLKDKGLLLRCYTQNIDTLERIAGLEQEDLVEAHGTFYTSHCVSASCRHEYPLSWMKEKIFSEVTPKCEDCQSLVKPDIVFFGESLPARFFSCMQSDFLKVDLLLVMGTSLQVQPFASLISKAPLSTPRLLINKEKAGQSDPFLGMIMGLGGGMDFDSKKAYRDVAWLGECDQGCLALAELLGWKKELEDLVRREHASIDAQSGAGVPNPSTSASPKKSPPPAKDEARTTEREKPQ
Description: affinity purification with mass spectrometry; HeLa cells transfected with SIRT2-GFP or GFP alone, whole cell lysate in RIPA buffer, GFP-Trap agarose beads, elution with 200 mM glycine pH 2.5, LC-MS/MS; t-test against GFP alone (FDR 0.01, S0 2).
As for “CREB-binding protein (CBP) (from UniProt Q92793 1-2442)”, the binding entry was “binds”.

Take EP300 (from UniProt Q09472 1-2414): the binding result was “binds”.

As to Exportin-1 (from UniProt O14980 1-1071), the binding result is reported as “binds”.

With “Transportin 1 (TNPO1) (from UniProt Q92973 1-898)”, the binding result is given as “binds”.

As for “isocitrate dehydrogenase β subunit (from UniProt O43837 35-385) (enzyme)”, the binding result is given as “binds”.

As for α-tubulin (human (endogenous in HeLa)), the binding entry was “binds”.

The next assay has as its target T1, SIRT2 (isoform 1) tagged at its C-terminus with GFP. Described as above. The source holds these as a separate data set.
Turning to B1, the binding result was “binds”.

Source of the values: paper PMC7010746.
